Results reported in patent US9980973B2, “Bicyclic heterocycle compounds and their uses in therapy” (ASTEX THERAPEUTICS LIMITED, priority 2012, dated 2018).
Counter-ions that a name gives are not always drawn. Some results were stated once for a whole list of compounds, not compound by compound.

The chains behind the UniProt entries cited, without tags or fusion partners. Residues count along the entry.
UniProt P98170, 252-350: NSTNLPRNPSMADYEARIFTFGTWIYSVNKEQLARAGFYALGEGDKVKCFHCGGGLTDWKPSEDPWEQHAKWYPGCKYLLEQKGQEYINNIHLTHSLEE
UniProt Q13490, 267-363: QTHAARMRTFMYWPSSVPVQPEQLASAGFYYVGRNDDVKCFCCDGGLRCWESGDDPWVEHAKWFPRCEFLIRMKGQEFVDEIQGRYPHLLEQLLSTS

Tests used:
[1] = target: T1, BIR3 domain of human XIAP (Homo sapiens, UniProt P98170); test: XIAP in vitro competitive displacement binding assay (fluorescence polarization)
T1 construct: BIR3 domain of human XIAP (residues 252-350) fused to a His-tag; His-tag (cleaved yes); made in house; host or cells: Escherichia coli

[2] = target: T2, BIR3 domain of human cIAP-1 (Homo sapiens, UniProt Q13490); test: cIAP-1 in vitro competitive displacement binding assay (fluorescence polarization); conditions: or at least 50% inhibition of the activity at 0.1 μM; read-out: IC50 in the cIAP1 assay
T2 construct: human cIAP-1 (residues 267-363) fused to a GST-tag; GST-tag (cleaved yes); made in house; host or cells: Escherichia coli

[3] = or at least 50% inhibition of the activity at 1 μM
[4] = or at least 50% inhibition of the activity at 0.1 μM

Compound | IC50 [1, 3] | IC50 [2] | IC50 [1, 4]
C[C@@H]1CN(CC(=O)N2CC(C)(C)c3ncc(Cc4ccc(F)cc4)cc32)[C@@H](CN2Cc3cccnc3C2)CN1 [Example 21, 1-{6-[(4-Fluorophenyl)methyl]-3,3-dimethyl-1H,2H,3H-pyrrolo[3,2-b]pyridin-1-yl}-2-[(2R,5R)-5-methyl-2-{5H,6H,7H-pyrrolo[3,4-b]pyridin-6-ylmethyl}piperazin-1-yl]ethan-1-one dihydrochloride] | < 1000 nM | < 100 nM | –
C[C@@H]1CN(CC(=O)N2CC(C)(C)c3ncc(Cc4ccccc4)cc32)[C@@H](CN2[C@H](C)COC[C@H]2C)CN1 [Example 29, 1-{6-Benzyl-3,3-dimethyl-1H,2H,3H-pyrrolo[3,2-b]pyridin-1-yl}-2-[(2R,5R)-2-{[(3R,5R)-3,5-dimethylmorpholin-4-yl]methyl}-5-methylpiperazin-1-yl]ethan-1-one dihydrochloride] | < 1000 nM | < 100 nM | –
C[C@@H]1CN(CC(=O)N2CC(C)(C)c3ncc(Cc4ccc(F)cc4)cc32)[C@@H](CN2CCN(C)C(=O)[C@H]2C)CN1 [Example 34, (3R)-4-{[(2R,5R)-1-(2-{6-[(4-Fluorophenyl)methyl]-3,3-dimethyl-1H,2H,3H-pyrrolo[3,2-b]pyridin-1-yl}-2-oxoethyl)-5-methylpiperazin-2-yl]methyl}-1,3-dimethylpiperazin-2-one dihydrochloride] | < 1000 nM | < 100 nM | –
C[C@@H]1CN(CC(=O)N2CC(C)(C)c3ncc(Cc4ccc(F)cc4)cc32)[C@@H](CN2CCNC(=O)[C@H]2C)CN1 [Example 35, (3R)-4-{[(2R,5R)-1-(2-{6-[(4-Fluorophenyl)methyl]-3,3-dimethyl-1H,2H,3H-pyrrolo[3,2-b]pyridin-1-yl}-2-oxoethyl)-5-methylpiperazin-2-yl]methyl}-3-methylpiperazin-2-one] | < 1000 nM | < 100 nM | –
C[C@@H]1CN(CC(=O)N2CC(C)(C)c3ncc(Cc4ccc(F)cc4)cc32)[C@@H](CN2CCNC(=O)C2)CN1 [Example 42, 4-{[(2R,5R)-1-(2-{6-[(4-Fluorophenyl)methyl]-3,3-dimethyl-1H,2H,3H-pyrrolo[3,2-b]pyridin-1-yl}-2-oxoethyl)-5-methylpiperazin-2-yl]methyl}piperazin-2-one dihydrochloride] | < 1000 nM | < 100 nM | –
CCC(F)(F)c1cnc2c(c1)N(C(=O)CN1C[C@@H](C)NC[C@@H]1CN1[C@H](C)COC[C@H]1C)CC2(C)C [Example 43, 1-[6-(1,1-Difluoropropyl)-3,3-dimethyl-1H,2H,3H-pyrrolo[3,2-b]pyridin-1-yl]-2-[(2R,5R)-2-{[(3R,5R)-3,5-dimethylmorpholin-4-yl]methyl}-5-methylpiperazin-1-yl]ethan-1-one, dihydrochloride] | – | < 100 nM | < 100 nM
CCCC(F)(F)c1cc2c(cn1)C(C)(C)CN2C(=O)CN1C[C@@H](C)NC[C@@H]1CN1[C@H](C)COC[C@H]1C [Example 44, 1-[6-(1,1-Difluorobutyl)-3,3-dimethyl-1H,2H,3H-pyrrolo[3,2-c]pyridin-1-yl]-2-[2R,5R)-2-{[(3R,5R)-3,5-dimethylmorpholin-4-yl]methyl}-5-methylpiperazin-1-yl]ethan-1-one, dihydrochloride] | < 1000 nM | < 100 nM | < 100 nM
CC1COCCN1C[C@H]1CN[C@H](C)CN1CC(=O)N1CC(C)(C)c2ccc(Cc3ccc(F)cc3)cc21 (stereo partly drawn) [Example 45, 1-{6-[(4-Fluorophenyl)methyl]-3,3-dimethyl-2,3-dihydro-1H-indol-1-yl}-2-[(2R,5R)-5-methyl-2-{[(3R)-3-methylmorpholin-4-yl]methyl}piperazin-1-yl]ethan-1-one, dihydrochloride] | < 1000 nM | < 100 nM | < 100 nM
